Article PMC12116779
Results are given in words; binding and its absence hold for the method and conditions named. Binding seen in cells or lysates may run through a third protein. A yes stands for co-enrichment or nearness to the bait. Other partners may have been found.

Chains of the proteins cited; added tags and fusions are not shown.
UniProt Q9UBN7: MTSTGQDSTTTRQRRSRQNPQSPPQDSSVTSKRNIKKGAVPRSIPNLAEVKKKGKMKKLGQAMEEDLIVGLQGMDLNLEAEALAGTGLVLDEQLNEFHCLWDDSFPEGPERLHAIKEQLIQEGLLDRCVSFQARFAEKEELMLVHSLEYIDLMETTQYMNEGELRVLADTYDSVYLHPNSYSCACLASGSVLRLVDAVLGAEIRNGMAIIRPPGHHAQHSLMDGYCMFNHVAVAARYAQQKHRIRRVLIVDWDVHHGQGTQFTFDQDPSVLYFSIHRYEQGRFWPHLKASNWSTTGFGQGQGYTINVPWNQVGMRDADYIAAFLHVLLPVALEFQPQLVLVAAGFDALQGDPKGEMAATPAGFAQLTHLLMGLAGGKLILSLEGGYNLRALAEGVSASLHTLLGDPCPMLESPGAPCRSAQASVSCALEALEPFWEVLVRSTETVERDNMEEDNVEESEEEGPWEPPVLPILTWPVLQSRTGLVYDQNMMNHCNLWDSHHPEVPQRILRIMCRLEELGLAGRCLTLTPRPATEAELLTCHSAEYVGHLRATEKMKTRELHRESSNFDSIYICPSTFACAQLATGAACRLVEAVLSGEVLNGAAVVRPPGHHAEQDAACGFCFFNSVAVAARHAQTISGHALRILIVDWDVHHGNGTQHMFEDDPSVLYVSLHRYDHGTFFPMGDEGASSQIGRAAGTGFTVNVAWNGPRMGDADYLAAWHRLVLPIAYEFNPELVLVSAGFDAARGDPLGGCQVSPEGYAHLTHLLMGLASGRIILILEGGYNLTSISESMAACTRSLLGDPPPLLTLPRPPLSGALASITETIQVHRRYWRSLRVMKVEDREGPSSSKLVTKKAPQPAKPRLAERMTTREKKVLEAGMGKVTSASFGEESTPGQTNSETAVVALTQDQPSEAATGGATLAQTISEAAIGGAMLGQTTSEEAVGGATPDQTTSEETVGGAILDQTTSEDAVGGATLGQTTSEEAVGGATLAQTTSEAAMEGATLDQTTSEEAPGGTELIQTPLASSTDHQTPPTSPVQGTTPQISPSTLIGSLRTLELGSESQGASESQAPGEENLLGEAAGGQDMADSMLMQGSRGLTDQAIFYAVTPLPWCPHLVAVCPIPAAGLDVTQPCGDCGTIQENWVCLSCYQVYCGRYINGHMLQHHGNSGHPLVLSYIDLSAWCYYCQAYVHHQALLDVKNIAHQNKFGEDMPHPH

Target: GFP-HDAC6 (UniProt Q9UBN7)
Assay: affinity purification with mass spectrometry; GFP-HDAC6 or GFP-ENKD1 overexpressed in cells (HEK293T in the methods, HCE-2 in the legends), immunoprecipitated with anti-GFP beads, gel-based LC-MS

binding: binds
B1: enkurin domain-containing protein 1 (ENKD1), endogenous, human cells (protein, UniProt Q9H0I2 1-346)
chain: MCEGPSRISGPIPPDPTLCPDNYRRPTSAQGRLEGNALKLDLLTSDRALDTTAPRGPCIGPGAGEILERGQRGVGDVLLQLEGISLGPGASLKRKDPKDHEKENLRRIREIQKRFREQERSREQGQPRPLKALWRSPKYDKVESRVKAQLQEPGPASGTESAHFLRAHSRCGPGLPPPHVSSPQPTPPGPEAKEPGLGVDFIRHNARAAKRAPRRHSCSLQVLAQVLEQQRQAQEHYNATQKGHVPHYLLERRDLWRREAEARKQSQPDPAMPPGHTRMPENQRLETLTKLLQSQSQLLRELVLLPAGADSLRAQSHRAELDRKLVQVEEAIKIFSRPKVFVKMDD
